From PubChem BioAssay AID488835 (Broad Institute, 2010)
The campaign covered roughly 1,400 compounds. About 140 (10%) were called active.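 The calls were made as follows: active = Half-maximal inhibitory dose from the fit at or below ten times the top valid tested dose; inconclusive = Invalid fit, or flat curve showing 30 to 70% inhibition; inactive = the rest.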 The entries are a selection whose mix differs from that of the whole data set. Potency and affinity values are given separately.

Sequences of proteins named here, by UniProt entry; tags and fusion partners are left off. Residues count along the entry.
UniProt Q9H3R0, 1-420 limits assumed: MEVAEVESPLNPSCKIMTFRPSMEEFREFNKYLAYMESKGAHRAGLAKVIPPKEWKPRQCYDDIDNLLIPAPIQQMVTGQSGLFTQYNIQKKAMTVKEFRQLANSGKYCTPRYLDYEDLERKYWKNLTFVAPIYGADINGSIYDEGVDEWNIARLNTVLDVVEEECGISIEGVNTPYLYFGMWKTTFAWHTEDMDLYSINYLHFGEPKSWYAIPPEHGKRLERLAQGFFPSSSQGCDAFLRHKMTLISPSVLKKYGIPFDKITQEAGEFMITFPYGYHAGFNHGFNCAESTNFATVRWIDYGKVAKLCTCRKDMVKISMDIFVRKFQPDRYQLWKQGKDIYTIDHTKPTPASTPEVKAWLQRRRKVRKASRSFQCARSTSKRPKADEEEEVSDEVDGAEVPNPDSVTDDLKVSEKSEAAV

target: Lysine-specific demethylase 4C (Homo sapiens) (UniProt Q9H3R0); test: GASC-1 (JMJD2C) histone demethylase inhibitors, dose response, biochemical, DELFIA europium, cherry-picked samples (AID 488835); conditions: GST-JMJD2C(1-420), H3K9me3 demethylation; at 6 µM (top of the series) unless noted;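 also: signal is the H3K9me2 demethylation product detected by a dimethyl-specific antibody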

Activity change, negative = inhibition, inactive:
Cc1ccc(S(=O)(=O)N2[C@@H](c3ccc(Br)cc3)C(C(=O)O)=C[C@H]2CC2CCCC2)cc1 -1.88%
Cc1cccc(-c2noc(CCC(=O)NC3CCCC3)n2)c1 -1.28%
CCOC(=O)c1ccc(N2C(=O)C(C)=C(C)C2=O)cc1 11.2%
COc1ccc(CCN=C(NS(=O)(=O)c2ccc(Cl)cc2)c2ccccc2)cc1 7.32%
CCOC(=O)C1=C(C)NC(=O)NC1c1ccc(Br)s1 (configuration not stated) -6.07%
CCC(=O)Nc1ccccc1Nc1cc(C#N)c(C#N)cc1[N+](=O)[O-] 2.52%
COc1ccc(NC(=O)CCc2ccccc2)cc1NC(=O)c1ccco1 2.99%
Nn1cc(-c2ccccc2)nc1SCC(=O)N1CCN(S(=O)(=O)c2ccc3ccccc3c2)CC1 5.59%
CCOc1ccc(NC(=O)CN(C)CC(=O)Nc2cc(Cl)ccc2C#N)cc1OCC 1.02%
O=C(Nc1nncs1)c1ccc2c(c1)OCO2 8.07%
N=c1n(CC(=O)c2cccc([N+](=O)[O-])c2)c2ccccc2n1Cc1ccccc1 -9.38%
O=C(C1CCN(S(=O)(=O)c2ccc3ccccc3c2)CC1)N1CCN(c2ncccn2)CC1 -5.05%
COc1ccc2c(C(=O)NCCCCO)c(-c3ccc(S(C)(=O)=O)cc3)sc2c1 3.4%
CC(=O)Nc1sc2c(c1CN1CCN(C)CC1)CCCC2 6.9%
COCCCNC(=O)CC1C[C@H](C(=O)N2CCOCC2)[C@@]2(C)c3[nH]c4ccccc4c3CCN2C1=O (some centres not stated) 1.15%
COCCn1c(SCC(=O)Nc2cc(C(C)(C)C)nn2-c2ccccc2)nc2ccccc2c1=O 4.81%
CCN(C[C@H]1N[C@@](Cc2ccccc2)(C(=O)OC)[C@H]2C(=O)N(C)C(=O)[C@@H]12)S(=O)(=O)c1ccccc1 6.98%
O=c1nc(SCc2cccc(C(F)(F)F)c2)nc2ccccn12 -5.39%
Cc1nnc(SCc2nc3ccccc3[nH]2)s1 8.43%
CC1Oc2ccccc2N(Cc2ccccc2Cl)C1=O (configuration not stated) -6.49%
CC1C(=O)N(Cc2ccc([N+](=O)[O-])cc2)c2ccccc2N1C(=O)C1CC1 (configuration not stated) 2.71%
COC(=O)C(Cc1ccccc1)NC(=O)COc1ccc(C(C)(C)C)cc1 (configuration not stated) -0.353%
Cc1ccc(NC(=O)COC(=O)CCc2c[nH]c(=O)[nH]2)cc1 9.31%
O=c1c2ccccc2nc2c3ccccc3c(NCc3ccco3)nn12 3.15% [at 1.6 µM]
CN(c1ccc(OCC(=O)N2CCCCC2)cc1)S(=O)(=O)c1cccs1 0.477%
C[C@@]12C(=O)Nc3ccc(Cl)cc3C(=O)N1[C@H]1c3cc(Br)ccc3OC[C@@H]1[C@@H]2c1ccccc1 7.95%
O=C(C/C=N/OCc1ccc(Cl)cc1Cl)c1ccccc1 3.68%
COc1ccc(OC)c(Nc2nnc(C)c(=O)[nH]2)c1 2.25%
CN(C(=O)c1ccc(Cl)c([N+](=O)[O-])c1)C1(C)CCS(=O)(=O)C1 (configuration not stated) -4.39%
Cc1cc(N2CCN(c3ccccc3)CC2)nc(-c2ccccc2)n1 -3.92%
NC(=S)Nc1ccc(Cl)cc1Cl -0.693%
Cn1nnc(NC(=O)CSc2ccc(Cl)cc2)n1 -1.87%
Cc1ccc(NC(=O)C2C3CCCC2C3c2ccccc2)cc1C (configuration not stated) -2.47%
CCCc1cc(=O)[nH]c(SCC(=O)Nc2cc(S(=O)(=O)N(CC)c3ccccc3)ccc2Cl)n1 1.6%
COc1ccc(-c2ccc3oc(-c4ccsc4)cc(=O)c3c2)cn1 0.942%
Oc1ccc(C2Nc3cccc4cccc(c34)N2)cc1 -4.18%
COc1ccc(-n2cc(C(=O)O)c3ccccc3c2=O)cc1 11.8%
COc1cccc2c1nc(C)c1cc(C)oc12 -1.78%
Cc1occc1-c1nnc(SCC(=O)c2c[nH]c3ccccc23)n1C -1.09%
CCCN(CCC)CCNC(=O)CS(=O)Cc1nc(-c2ccc(C)cc2)oc1C (configuration not stated) -1.44%
CCN(C[C@H]1N[C@@](Cc2ccccc2)(C(=O)OC)[C@H]2C(=O)N(Cc3ccccc3)C(=O)[C@@H]12)S(=O)(=O)c1ccccc1 1.11%
COc1ccc(NC(=O)N(C)C[C@H]2Oc3c(NS(=O)(=O)c4cccs4)cccc3C(=O)N([C@@H](C)CO)C[C@@H]2C)cc1 6.59%
COC(C(=O)Nc1ccc(NC(=O)C(OC)c2ccccc2)cc1)c1ccccc1 (configuration not stated) -6.79%
Cc1cc(NC(=O)CCC(=O)N(c2ccccc2)C2(C(=O)NC3CCCCC3)CCCC2)no1 -1.18%
CC(=O)c1c(C)[nH]c(C(=O)NCCC2=CCCCC2)c1C 5.97%
O=C(NCc1cccs1)c1cccnc1C(=O)O -1.61%
Cc1noc(C)c1CCC(=O)N1CCCC(CCC(=O)NCc2ccccc2F)C1 (configuration not stated) -3.85%
Cc1onc(-c2c(F)cccc2Cl)c1C(=O)N1CCN(S(C)(=O)=O)CC1 12.7%
CC(C)(C)OC(=O)C[C@@H]1C/C=C\C[C@H](CC(=O)N[C@H](CO)Cc2ccccc2)C(=O)N[C@@H](Cc2ccccc2)COC1=O 5.54%
CC1=NN(C(=O)Cc2ccccc2)C(O)(c2cccnc2)C1 (configuration not stated) 1.24%
O=C(/C=C\Nc1ccc(Cl)cn1)c1ccc(Br)cc1 -7.96%
CCOC(=O)Cn1nc(C)c2c1CCCC2=O 1.44%
O=C(COc1ccc(Cl)cc1)NCCCn1ccnc1 3.44%
COc1c(Cl)cc(Cl)cc1/C=C/C(=O)c1ccc(NC(=O)c2cccs2)cc1 4.13%
O=C(COC(=O)c1ccco1)NNC(=O)c1ccc(Cl)cc1 1.1%
Fc1cccc(/C=N/Nc2nc3ccccc3[nH]2)c1 2.18%
Cc1cccc(C)c1N1C(=O)c2cccc([N+](=O)[O-])c2C1=O 1.27%
CCC(NS(=O)(=O)c1cccs1)c1ccc(C)cc1 (configuration not stated) 3.29%
c1coc(CSCc2cn3cccnc3n2)c1 7.04%
CCCNC1=C(N(C(C)=O)c2cccc(F)c2)C(=O)c2ccccc2C1=O 3.34%
C=C(C)COc1ccc(-c2n[nH]c(C)c2-c2ccccc2)c(O)c1 21.4%
Cc1cccc(CN2CCC(Oc3ccc(C(=O)N4CCCC4)cc3)CC2)n1 0.665%
Cc1ccc(CCNC(=O)C23C[C@H]4C[C@@H](C2)CC(n2nnc(C)n2)(C4)C3)cc1 5.08%
C#CCOCCOCCOCCNc1nc(N2CCN(C(=O)[C@H](CCC(=O)O)n3cc(CN)nn3)CC2)nc(N2CCN(C(=O)[C@H](CCCN=C(N)N)n3cc(C(N)[C@@H](C)CC)nn3)CC2)n1 (some centres not stated) 76.7%
CN(C(=O)c1ccc(NC(=O)Cc2ccc(NC(=O)C3CCN(C(=O)C4CC4)CC3)cc2)cc1)C1CC1 -1.05%
O=C1CC2(CCN(C(=O)c3ccccc3Cl)CC2)Oc2ccccc21 4.1%
CC(C)(C)OC(=O)NNC(=O)Nc1ccccc1C(F)(F)F -1.55%
COc1cccc(C2c3[nH]c4ccccc4c3CCN2CCCn2cccn2)c1 (configuration not stated) -2.21%
Cc1ccc(-c2csc3nc(C)n(-n4c(C)ccc4C)c(=O)c23)o1 -2.47%
O=C(Nc1cccnc1)c1ccc2c(c1)C(=O)N(Cc1cccnc1)C2=O -5.85%
CSc1nc(N)nc2c1ncn2CC(=O)N[C@H](CO)Cc1c[nH]c2ccccc12 -0.209%
O=C1[C@@H]2[C@H](C(=O)N1O)[C@H]1C=C[C@@H]2C1 -0.309%
CCOC(=O)CCC(=O)NCc1ccc2c(c1)cc(C)n2C 7.23%
O=C(COC(=O)c1cccs1)c1ccccc1 -4.18%
Cc1nnc(N2C(=O)c3cccc4c([N+](=O)[O-])ccc(c34)C2=O)s1 8.61%
Cc1ccc(-n2nc3c(N4CCC(C(=O)N5CCCCCC5)CC4)nnc(C)c3c2C)cc1 2.79%
CN(C)CCCNC1=CC(=O)OC12CCCCC2 -0.414%
CCCSc1nc(-c2ccccc2)cc(C(F)(F)F)c1C#N 2.52%
Cc1ccc(C(Sc2ccccc2)C(Cn2cncn2)C(=O)c2ccccc2)cc1 (configuration not stated) 3.43%
Cn1cc(C(=O)N2CCCCC2)c(=O)c2cc(S(=O)(=O)N3CCCC3)ccc21 -4.37%
CCOC(=O)[C@H]1[C@H]2COc3ccc(C)cc3[C@@H]2N2C(=O)c3ccc(Cl)cc3NC(=O)[C@@]12C -0.644%
N#CC1=C(N)N2C(=C(C#N)C13CCCCC3)SC1CCCCC12O (configuration not stated) 1.47%
N#Cc1ccc(CSc2ncnc3c2cnn3Cc2ccccc2)cc1 -6.51%
O=C(c1ccc2c(c1)OCO2)N1CCCN(C(=O)c2ccc3c(c2)OCO3)CC1 -1.3%
COC(=O)C1=C(C)OC(N)=C(C#N)C1c1cc2cccc(C)c2nc1Cl (configuration not stated) 3.78%
CS(=O)(=O)c1ccccc1-c1nnc(NC(=O)c2ccc3ncsc3c2)o1 6.94%
COc1ccc(S(=O)(=O)N2CC(O)CC2C(=O)OCc2nc3sc(C)c(C)c3c(=O)[nH]2)cc1 (configuration not stated) 1.48%

A draw from above in order of length of the SMILES, rising.
Activity change, negative = inhibition, inactive:
COc1cccc2c1nc(C)c1cc(C)oc12 -1.78%
Fc1cccc(/C=N/Nc2nc3ccccc3[nH]2)c1 2.18%
O=c1nc(SCc2cccc(C(F)(F)F)c2)nc2ccccn12 -5.39%
Cc1noc(C)c1CCC(=O)N1CCCC(CCC(=O)NCc2ccccc2F)C1 (configuration not stated) -3.85%
COc1ccc(CCN=C(NS(=O)(=O)c2ccc(Cl)cc2)c2ccccc2)cc1 7.32%
CSc1nc(N)nc2c1ncn2CC(=O)N[C@H](CO)Cc1c[nH]c2ccccc12 -0.209%
